Experimental data from PMC9820583.
These are yes or no findings as the source states them, for the method shown. In cells and extracts the contact can be indirect. Binding can be weak; no strength is given. Sequences can lack the tags named with a protein.

Biological target: T1, Flag-tagged CDKL5 (107 kDa splice variant) (UniProt O76039)
T1 sequence: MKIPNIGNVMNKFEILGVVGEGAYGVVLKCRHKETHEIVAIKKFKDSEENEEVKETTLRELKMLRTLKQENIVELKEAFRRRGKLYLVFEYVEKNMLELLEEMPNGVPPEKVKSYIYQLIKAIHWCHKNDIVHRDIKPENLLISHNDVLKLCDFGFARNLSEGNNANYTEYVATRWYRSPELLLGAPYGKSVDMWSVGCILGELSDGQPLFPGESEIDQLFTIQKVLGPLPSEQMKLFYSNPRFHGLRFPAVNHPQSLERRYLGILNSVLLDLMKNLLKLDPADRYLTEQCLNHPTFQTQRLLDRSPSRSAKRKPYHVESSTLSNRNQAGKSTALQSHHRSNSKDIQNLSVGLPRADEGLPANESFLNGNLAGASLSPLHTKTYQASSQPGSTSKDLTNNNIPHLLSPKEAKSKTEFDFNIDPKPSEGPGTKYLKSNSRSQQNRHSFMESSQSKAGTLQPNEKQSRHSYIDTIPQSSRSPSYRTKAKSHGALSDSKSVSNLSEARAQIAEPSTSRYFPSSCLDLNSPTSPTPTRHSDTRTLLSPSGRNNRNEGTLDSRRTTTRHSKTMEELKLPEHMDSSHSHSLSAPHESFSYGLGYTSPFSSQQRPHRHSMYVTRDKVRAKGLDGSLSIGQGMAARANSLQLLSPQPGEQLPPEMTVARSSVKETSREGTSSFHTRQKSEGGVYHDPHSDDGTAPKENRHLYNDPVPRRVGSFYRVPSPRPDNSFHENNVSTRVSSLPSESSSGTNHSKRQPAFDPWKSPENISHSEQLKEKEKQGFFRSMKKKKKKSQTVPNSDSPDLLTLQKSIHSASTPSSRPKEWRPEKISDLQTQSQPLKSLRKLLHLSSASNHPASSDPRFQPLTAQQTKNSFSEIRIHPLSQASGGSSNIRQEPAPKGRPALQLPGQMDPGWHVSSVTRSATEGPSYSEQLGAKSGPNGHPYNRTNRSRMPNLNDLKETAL
Test: co-IP; CDKL5 immunoprecipitated with 1 µg monoclonal anti-CDKL5 from 400 µg of HEK293T cells expressing Flag-CDKL5 and Myc-CB2; lysis buffer 50 mM Tris-HCl pH 7.4, 150 mM NaCl, 1 mM EDTA, 1 mM EGTA, 1% Triton X-100; overnight at 4 °C; protein-G agarose; western blotting with anti-CDKL5 and anti-CB

Myc-tagged collybistin CB2 isoform
binding: binds
